No constants are given. Whether binding was seen depends on the method and setting. Some results given as binding are weak or reduced against the parent protein; the word gives no strength.
Tests used:
Human IL-33 [1] = target: T1, Human IL-33 (human, UniProt O95760 112-270, limits assumed); test: ELISA on plate-coated human IL-33; 150 mg/mL formulation stored 3 and 6 months at 2 to 8 C
T1 construct: also called NF-HEV
T1 sequence (looked up): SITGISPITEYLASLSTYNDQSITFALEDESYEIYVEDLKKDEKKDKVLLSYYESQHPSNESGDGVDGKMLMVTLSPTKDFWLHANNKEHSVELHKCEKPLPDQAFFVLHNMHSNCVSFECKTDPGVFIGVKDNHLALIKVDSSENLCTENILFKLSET

Human IL-33 [2] = target: T1, Human IL-33; test: ELISA on plate-coated human IL-33; 10 mg/mL formulation stored 1, 2 and 3 years at 2 to 8 C

B1: human anti-IL-33 monoclonal antibody A25-2C02 (antibody, human IgG1, lambda, V domains shown)
VH: EVQLLESGGGLVQPGGSLRLSCAASGFTFSNYYMHWVRQAPGKGLEWVSSISARSSYIYYADSVKGRFTISRDNSKNTLYLQMNSLRAEDTAVYYCARLATRNNAFDIWGQGTLVTVSS
VL: QSVLTQPPSASGTPGQRVTISCSGSSSNIGRNAVNWYQQLPGTAPKLLIYASNMRVSGVPDRFSGSKSGTSASLAISGLRSEDEADYYCWAWDDSQKVGVFGGGTKLTVLG
For B1, the binding (Human IL-33 [1]) was “binds” and the binding (Human IL-33 [2]) was “binds”.

B2: human anti-IL-33 monoclonal antibody A25-3H04 (antibody, human IgG1, lambda, V domains shown)
VH: EVQLLESGGGLVQPGGSLRLSCAASGFTFSRYYMHWVRQAPGKGLEWVSSISAQSSHIYYADSVEGRFTISRDNSKNTLYLQMNSLRAEDTAVYYCARLATRQNAFDIWGQGTLVTVSS
VL: QSVLTQPPSASGTPGQRVTISCSGSSSNIGRNAVNWYQQLPGTAPKLLIYASNMRRSGVPDRFSGSKSGTSASLAISGLRSEDEADYYCSAWDDSQKVVVFGGGTKLTVLG
With B2 the binding (Human IL-33 [1]) was “binds” and the binding (Human IL-33 [2]) was “binds”.

B3: human anti-IL-33 monoclonal antibody A26-1F02 (antibody, human IgG1, lambda, V domains shown)
VH: EVQLLESGGGLVQPGGSLRLSCAASGFTFSNYYMHWVRQAPGKGLEWVSSISARSSYLYYADSVKGRFTISRDNSKNTLYLQMNSLRAEDTAVYYCARLATRHVAFDIWGQGTLVTVSS
VL: QSVLTQPPSASGTPGQRVTISCSGSSSNIGNNAVNWYQQLPGTAPKLLIYASNMRRPGVPDRFSGSKSGTSASLAISGLRSEDEADYYCEAWDDSQKAVVFGGGTKLTVLG
For B3, the binding (Human IL-33 [1]) was “binds” and the binding (Human IL-33 [2]) was “binds”.

B4: human anti-IL-33 monoclonal antibody A10-1C04 (antibody, human IgG1, lambda, V domains shown)
VH: EVQLLESGGGLVQPGGSLRLSCAASGFTFSDYYMNWVRQAPGKGLEWVSSISRYSSYIYYADSVKGRFTISRDNSKNTLYLQMNSLRAEDTAVYYCARDIGGMDVWGQGTLVTVSS
VL: QSVLTQPPSASGTPGQRVTISCTGSSSNIGAVYDVHWYQQLPGTAPKLLIYRNNQRPSGVPDRFSGSKSGTSASLAISGLRSEDEADYYCQTYDSSRWVFGGGTKLTVLG
notes: Detected with anti-human IgG antibody in the ELISA
In the case of B4, the binding (Human IL-33 [1]) is reported as “binds” and the binding (Human IL-33 [2]) is reported as “binds”.

B5: human anti-IL-33 monoclonal antibody A23-1A05 (antibody, human IgG1, lambda, V domains shown)
VH: EVQLLESGGGLVQPGGSLRLSCAASGFTFSNYYMHWVRQAPGKGLEWVSSISARSRYHYYADSVKGRFTISRDNSKNTLYLQMNSLRAEDTAVYYCARLATRHNAFDIWGQGTLVTVSS
VL: QSVLTQPPSASGTPGQRVTISCSGSSSNIGNNAVSWYQQLPGTAPKLLIYASNMRVIGVPDRFSGSKSGTSASLAISGLRSEDEADYYCGAWDDSQKALVFGGGTKLTVLG
With B5 the binding (Human IL-33 [1]) was “binds” and the binding (Human IL-33 [2]) was “binds”.

Reference: patent US20220041709A1 (MITSUBISHI TANABE PHARMA, published 2022)
